Source: PMC10194889
These are yes or no findings as the source states them, for the method shown. In cells and extracts the contact can be indirect. Some binding calls cover weakened binding; strength is not graded here.

Protein sequences, listed by entry. Tags and fused reporters are not part of them. Residues count along the entry.
UniProt P21860, residues 20-1342: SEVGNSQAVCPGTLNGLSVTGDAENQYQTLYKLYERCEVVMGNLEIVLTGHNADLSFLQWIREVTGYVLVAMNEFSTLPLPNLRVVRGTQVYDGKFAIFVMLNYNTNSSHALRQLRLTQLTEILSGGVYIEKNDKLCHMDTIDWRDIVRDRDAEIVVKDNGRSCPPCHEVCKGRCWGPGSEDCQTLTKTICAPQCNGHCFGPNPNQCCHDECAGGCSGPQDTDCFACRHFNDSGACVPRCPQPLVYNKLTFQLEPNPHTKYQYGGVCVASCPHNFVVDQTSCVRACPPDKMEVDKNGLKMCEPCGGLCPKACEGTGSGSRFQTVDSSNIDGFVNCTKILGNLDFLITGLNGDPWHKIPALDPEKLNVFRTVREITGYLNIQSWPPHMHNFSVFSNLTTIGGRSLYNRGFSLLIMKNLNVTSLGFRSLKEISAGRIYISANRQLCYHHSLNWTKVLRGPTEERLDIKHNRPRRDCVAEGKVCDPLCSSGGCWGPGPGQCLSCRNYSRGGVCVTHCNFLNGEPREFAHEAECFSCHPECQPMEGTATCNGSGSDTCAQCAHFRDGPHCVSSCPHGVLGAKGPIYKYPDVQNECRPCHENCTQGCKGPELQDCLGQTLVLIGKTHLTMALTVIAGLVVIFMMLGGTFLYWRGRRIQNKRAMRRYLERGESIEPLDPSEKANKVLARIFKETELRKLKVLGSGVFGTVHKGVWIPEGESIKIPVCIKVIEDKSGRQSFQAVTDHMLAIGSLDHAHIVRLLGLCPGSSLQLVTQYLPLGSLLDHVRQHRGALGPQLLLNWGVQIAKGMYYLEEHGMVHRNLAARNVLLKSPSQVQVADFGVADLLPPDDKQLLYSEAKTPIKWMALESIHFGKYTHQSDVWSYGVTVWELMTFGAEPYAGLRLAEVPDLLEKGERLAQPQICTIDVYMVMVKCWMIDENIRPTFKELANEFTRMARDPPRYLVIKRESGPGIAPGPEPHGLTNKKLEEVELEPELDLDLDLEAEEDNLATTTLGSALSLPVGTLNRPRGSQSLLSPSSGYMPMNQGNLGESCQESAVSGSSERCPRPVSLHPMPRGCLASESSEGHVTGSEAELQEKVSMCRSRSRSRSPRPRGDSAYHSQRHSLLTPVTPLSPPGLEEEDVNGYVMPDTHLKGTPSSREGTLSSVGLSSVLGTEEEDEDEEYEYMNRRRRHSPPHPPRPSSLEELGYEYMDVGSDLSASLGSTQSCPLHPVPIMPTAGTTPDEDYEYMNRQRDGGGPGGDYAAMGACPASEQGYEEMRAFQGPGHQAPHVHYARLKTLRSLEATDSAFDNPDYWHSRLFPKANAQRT
UniProt P35579: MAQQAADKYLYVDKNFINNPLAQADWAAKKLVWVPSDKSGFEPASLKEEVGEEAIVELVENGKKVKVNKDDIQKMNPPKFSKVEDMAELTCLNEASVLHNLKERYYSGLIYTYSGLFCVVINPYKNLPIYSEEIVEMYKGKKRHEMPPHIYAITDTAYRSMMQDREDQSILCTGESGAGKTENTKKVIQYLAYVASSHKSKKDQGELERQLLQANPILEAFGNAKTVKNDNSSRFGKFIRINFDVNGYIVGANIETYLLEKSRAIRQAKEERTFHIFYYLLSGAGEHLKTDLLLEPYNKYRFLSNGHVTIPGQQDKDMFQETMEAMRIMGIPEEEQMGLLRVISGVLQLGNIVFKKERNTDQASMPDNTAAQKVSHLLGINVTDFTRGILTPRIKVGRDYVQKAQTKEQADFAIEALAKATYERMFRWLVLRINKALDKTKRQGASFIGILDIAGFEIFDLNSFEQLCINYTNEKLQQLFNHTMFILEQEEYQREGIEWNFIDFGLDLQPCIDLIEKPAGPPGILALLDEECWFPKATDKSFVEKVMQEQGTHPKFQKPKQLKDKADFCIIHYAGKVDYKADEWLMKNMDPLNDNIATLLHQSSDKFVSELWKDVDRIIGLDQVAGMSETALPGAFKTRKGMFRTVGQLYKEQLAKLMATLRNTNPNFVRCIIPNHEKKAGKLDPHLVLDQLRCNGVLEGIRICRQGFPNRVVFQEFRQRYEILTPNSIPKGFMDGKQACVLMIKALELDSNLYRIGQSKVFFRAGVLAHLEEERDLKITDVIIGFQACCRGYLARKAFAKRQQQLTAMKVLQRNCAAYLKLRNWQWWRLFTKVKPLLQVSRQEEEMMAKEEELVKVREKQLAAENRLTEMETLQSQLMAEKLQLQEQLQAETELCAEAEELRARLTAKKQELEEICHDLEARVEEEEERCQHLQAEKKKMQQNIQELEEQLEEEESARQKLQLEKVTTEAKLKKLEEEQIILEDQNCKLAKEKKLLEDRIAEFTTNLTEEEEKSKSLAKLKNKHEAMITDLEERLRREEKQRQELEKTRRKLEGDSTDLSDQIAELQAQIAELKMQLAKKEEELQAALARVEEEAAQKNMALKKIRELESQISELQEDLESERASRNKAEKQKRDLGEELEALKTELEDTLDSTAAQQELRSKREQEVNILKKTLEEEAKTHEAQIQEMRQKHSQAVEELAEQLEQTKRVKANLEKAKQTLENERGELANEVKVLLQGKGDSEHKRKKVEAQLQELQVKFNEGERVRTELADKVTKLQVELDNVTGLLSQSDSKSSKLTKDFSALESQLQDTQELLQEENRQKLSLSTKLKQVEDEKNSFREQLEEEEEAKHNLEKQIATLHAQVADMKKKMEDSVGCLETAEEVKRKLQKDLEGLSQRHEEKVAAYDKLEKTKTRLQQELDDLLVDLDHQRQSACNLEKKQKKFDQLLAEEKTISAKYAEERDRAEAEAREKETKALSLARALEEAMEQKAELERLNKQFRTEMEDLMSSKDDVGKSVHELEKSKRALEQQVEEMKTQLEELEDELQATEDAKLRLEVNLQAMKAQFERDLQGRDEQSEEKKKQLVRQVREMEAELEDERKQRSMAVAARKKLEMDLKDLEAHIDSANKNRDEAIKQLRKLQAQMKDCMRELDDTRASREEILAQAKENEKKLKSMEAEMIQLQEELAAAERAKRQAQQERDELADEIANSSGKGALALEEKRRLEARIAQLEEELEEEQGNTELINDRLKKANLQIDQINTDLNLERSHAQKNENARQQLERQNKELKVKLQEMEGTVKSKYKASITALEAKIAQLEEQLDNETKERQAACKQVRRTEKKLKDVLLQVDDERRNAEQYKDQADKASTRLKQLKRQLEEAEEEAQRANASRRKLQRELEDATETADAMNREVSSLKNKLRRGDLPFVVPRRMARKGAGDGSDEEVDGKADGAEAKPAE

Columns and labels:
[1] = biological target: HER3 (human (endogenous in BT474 and MDA-MB-453)) (UniProt P21860); test: co-IP; BT474 and MDA-MB-453 cells treated with 200 nM neratinib or DMSO for 24 h; 1% NP40 lysis buffer; cleared lysate incubated with HER3 (2F12), IgG or NMIIA antibody overnight at 4 C, Protein A magnetic beads; NMIIA and HER3 immunoblots
[2] = biological target: non-muscle myosin IIA (human (endogenous in BT474 and MDA-MB-453)) (UniProt P35579); test: as above

| Substance | binding [1] | binding [2] |
| --- | --- | --- |
| non-muscle myosin IIA (from UniProt P35579 1-1960) | binds | – |
| HER3 (from UniProt P21860 20-1342) (receptor) | – | binds |
